Test results taken from US8501729B2 (Albany Molecular Research, Inc., priority 2008, dated 2013).
For at least one compound, name, drawing or mass did not settle the structure.

Chains of the proteins cited; added tags and fusions are not shown. Residues count along the entry.
UniProt P23979, 24-489: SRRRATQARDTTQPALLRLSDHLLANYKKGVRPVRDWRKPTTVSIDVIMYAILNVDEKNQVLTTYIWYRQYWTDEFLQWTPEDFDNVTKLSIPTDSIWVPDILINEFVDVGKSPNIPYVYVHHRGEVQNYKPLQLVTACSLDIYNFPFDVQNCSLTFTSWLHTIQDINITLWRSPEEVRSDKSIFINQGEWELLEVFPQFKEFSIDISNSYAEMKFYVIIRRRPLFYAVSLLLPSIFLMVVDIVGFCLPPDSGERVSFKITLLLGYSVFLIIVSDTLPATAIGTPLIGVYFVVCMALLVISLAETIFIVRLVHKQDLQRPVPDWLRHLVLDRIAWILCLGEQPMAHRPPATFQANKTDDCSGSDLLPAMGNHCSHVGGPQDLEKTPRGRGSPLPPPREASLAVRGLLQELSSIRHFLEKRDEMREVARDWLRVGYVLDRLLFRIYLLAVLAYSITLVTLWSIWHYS

Target: 5-HT3 receptors (Mus musculus (Mouse), UniProt P23979)
Assay: von Bezold-Jarisch model in vivo: inhibition of 5-HT induced bradycardia
Conditions: 3 mg/kg oral, 60 min before 5-HT 0.1 mg/kg IV; highest oral dose tested
Protocol: This is a well characterized and widely used model to assess 5-HT3 receptor function in vivo (King et al., 5-Hydroxtryptamine-3 Receptor Antagonists, CRC Press, pp. 74-75 (1993), which is hereby incorporated by reference in its entirety). Certain compounds (Table 1) were evaluated for their ability to inhibit serotonin induced bradycardia in vivo in the mouse (Saxena et al., Arch. Int. Pharmacodyn., 277:235-252 (1985), which is hereby incorporated by reference in its entirety). Test substances and vehicle [2% Tween 80] were each administered orally to a group of 5 male CD-1(Crl.) mice each weighing 24±2 g. A dosing volume of 10 mL/kg was used. Sixty minutes later, 5-HT (0.1 mg/kg IV)-induced bradycardia was recorded in urethane (2250 mg/kg IP, given 10 minutes before 5-HT)-anesthetized animals.

CC(C)n1nc2c3c(cccc31)C(=O)N([C@@H]1CN3CCC1CC3)CC2 [Example 26, (S)-2-Isopropyl-7-(quinuclidin-3-yl)-8,9-dihydro-2H-azepino[5,4,3-cd]indazol-6(7H)-one]
Inhibition of 5-HT Induced Bradycardia in Mice: 94% @ 3 mg/kg
